# Reference: patent US20100233678
# For some of these results: For at least one entry, the source does not settle the construct or the ends of the probe. For some of these results: A negative result means that nothing was seen under these conditions. For some of these results: Weaker means in comparison with the reference protein, sequence or condition of that experiment. For some of these results: The direction of at least one scale is not stated here.
# Tests used:
# [1] = test system: IgG Fc fragment (Homo sapiens); experiment: filter binding; settings: negligible; 37.5 mM NaCl, 3.75 mM sodium citrate, pH 6.0; purified native protein; single-stranded DNA
# IgG Fab'2 fragment = experiment: pull-down; settings: 5' aminohexyl, on Sepharose, purified native protein
# alpha-thrombin = experiment: binding assay; settings: inosine at positions 1 and 10 [inosine at 1,10]; affinity column; 125 mM TEAA, 10 mM KCl pH 6.5, LiCl gradient; purified native protein; single-stranded DNA; letters built from the parent sequence and the stated change; variant of RAD13 (TTT-aptamer)
# beta-thrombin = experiment: binding assay; settings: inosine at positions 1 and 10 [inosine at 1,10]; about 2 min, just after void; gamma-thrombin same; purified native protein; single-stranded DNA; letters built from the parent sequence and the stated change; variant of RAD13 (TTT-aptamer); counted as no binding
# gamma-thrombin = experiment: binding assay; settings: I = inosine [1, 10 (inosine in place of G)]; affinity column; elutes just after void peak; purified native protein; folded or branched DNA; letters built from the parent sequence and the stated change; variant of TTT-aptamer
# [2] = test system: IgG, polyclonal (ChromPure) (Homo sapiens); experiment: pull-down; settings: 5' aminohexyl, Sepharose-immobilized; control oligo, much lower retention than H2 and C7; 100 mM TEAA, 20 mM Mg2+, pH 7; purified native protein; protein details: Jackson ImmunoResearch; single-stranded DNA
sequence,measurement,setting,value
CCTTCCTTTGGAAGGTTG [RAD23],binding result,[1],no binding
TTTTCGCGCGTTTCCGCGCGAA [C7],binding result,"IgG Fab'2 fragment; retention H2>C7>>TG repeat>blank, 100 mM TEAA, 20 mM Mg2+, pH 7, single-stranded DNA",binds
GGTTGGTTTGGTTGG [inosine-variant anti-thrombin TAL],binding signal (min retention),alpha-thrombin,9
same,binding signal (min retention),beta-thrombin,2
same,binding signal (min retention),gamma-thrombin,2
TTTTGGTTGGGGTGGTTGG [H2],binding result,"IgG Fab'2 fragment; retention H2>C7>>TG repeat>blank, 100 mM TEAA, 20 mM Mg2+, pH 7, folded or branched DNA",binds
TGTGTGTGTGTGTGT [(TG)7T control],binding result,IgG Fab'2 fragment; single-stranded DNA,binds more weakly
same,binding result,[2],binds more weakly
TTTTCGCGCGTTAACGCGCGAA [RAD16],binding result,[1],no binding
TTTTCGCGCGTACGCGCGCGAA [RAD15],binding result,[1],no binding
